Source: PubChem BioAssay AID1508588 (Peter MacCallum Cancer Centre, 2020)
The whole screen tested about 18,000 reagents; shown is an unselected part. 790 of all reagents (4.4%) count as active. 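Calls rest on a combination of fold-change classes in drug and vehicle arms, not all shown here.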 Entries without a mark were called inactive.

Screen: 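Genome-wide search for knock-downs that heighten vemurafenib action in melanoma cells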 (primary screen)
System: human WM266.4 melanoma cells (BRAF V600 mutant)
Reagent: siRNA pool against human genes, 40 nM
Timing: 96 h from transfection to read-out
Conditions: vemurafenib 300 nM (about IC25), added 48 h after transfection, for 48 h; comparison arm got DMSO vehicle only
Detection: 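Ratios to non-targeting siRNA for cell gain, counted as DAPI nuclei after minus before drug and averaged over two replicates, and for absorbance-read medium lactate per cell; both binned into fold-change classes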
Direction: cell gain with vemurafenib: higher = more cell gain than with non-targeting siRNA; lactate per cell with vemurafenib: higher = more lactate made per cell
Rule for the call: 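Enhancement is called by pairing each knock-down's vehicle-arm and drug-arm fold-change classes for viability or glycolysis; which class combinations qualify is not given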
Calls: active = enhances vemurafenib effect; inactive = no enhancement seen

Gene	cell gain with vemurafenib	lactate per cell with vemurafenib
NLRC5 (GeneID 84166)	0.54	1.29
MRGBP (GeneID 55257)	0.39	0.96
CSRNP2 (GeneID 81566)	0.79	0.98
FYCO1 (GeneID 79443)	0.32	0.93
ANGEL1 (GeneID 23357)	0.33	1.32
CNTF (GeneID 1270)	0.75	0.99
CHURC1 (GeneID 91612)	0.86 (active)	0.48
RSPO2 (GeneID 340419)	0.73	0.55
WDR88 (GeneID 126248)	0.49 (active)	0.48
GSKIP (GeneID 51527)	-0.08	1.91
CNTN2 (GeneID 6900)	0.5	1.02
THYN1 (GeneID 29087)	-0.1	0.7
NOB1 (GeneID 28987)	1.01	0.71
IL25 (GeneID 64806)	0.4	0.73
LDHD (GeneID 197257)	0.82	0.7
RARG (GeneID 5916)	0.28	1.29
LONRF2 (GeneID 164832)	0.61	0.53
SLC25A28 (GeneID 81894)	0.26	1.45
SYT4 (GeneID 6860)	0.31	0.92
TPT1 (GeneID 7178)	1.27	0.55
INPP5E (GeneID 56623)	0.39	0.53
GNAT2 (GeneID 2780)	0.91	1.31
DMAC2 (GeneID 55101)	0.47	1.02
FBXL15 (GeneID 79176)	0.24	2.79
MRPL1 (GeneID 65008)	0.93	0.75
ZNF610 (GeneID 162963)	0.76	0.7
TRPM3 (GeneID 80036)	0.39	0.86
TUBB (GeneID 203068)	0.47	1.61
KCNMB2 (GeneID 10242)	0.44	0.64
RRAGD (GeneID 58528)	0.44	1.56
STK32B (GeneID 55351)	0.58	1.23
SNX11 (GeneID 29916)	0.6	1.25
ZNF519 (GeneID 162655)	0.78 (active)	0.49
ARSD (GeneID 414)	0.4	0.7
